# In PubChem BioAssay AID1117319 (Southern Research Institute, 2015):
# By UniProt entry, the sequences of proteins in these tests, tags left out. Where a name states a change or a piece, a line headed by the entry shows the natural chain unless it says otherwise.
# UniProt P69720: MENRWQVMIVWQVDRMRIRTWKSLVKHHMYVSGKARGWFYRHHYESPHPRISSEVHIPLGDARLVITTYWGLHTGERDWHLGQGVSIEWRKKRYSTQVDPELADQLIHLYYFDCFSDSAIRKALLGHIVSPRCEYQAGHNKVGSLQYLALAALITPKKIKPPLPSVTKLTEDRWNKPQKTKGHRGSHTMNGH
# UniProt P69721: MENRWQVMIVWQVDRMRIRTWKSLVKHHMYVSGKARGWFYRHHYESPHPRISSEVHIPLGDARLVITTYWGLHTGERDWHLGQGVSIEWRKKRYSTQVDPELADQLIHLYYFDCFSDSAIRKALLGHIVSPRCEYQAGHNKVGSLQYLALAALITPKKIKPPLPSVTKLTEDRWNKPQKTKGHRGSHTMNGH
# UniProt P69722: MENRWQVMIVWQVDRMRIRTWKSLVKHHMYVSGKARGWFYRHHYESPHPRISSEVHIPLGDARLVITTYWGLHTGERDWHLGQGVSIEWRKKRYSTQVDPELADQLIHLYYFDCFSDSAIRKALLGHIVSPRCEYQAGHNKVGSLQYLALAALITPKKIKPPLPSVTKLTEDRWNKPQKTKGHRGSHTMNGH
# UniProt P69723: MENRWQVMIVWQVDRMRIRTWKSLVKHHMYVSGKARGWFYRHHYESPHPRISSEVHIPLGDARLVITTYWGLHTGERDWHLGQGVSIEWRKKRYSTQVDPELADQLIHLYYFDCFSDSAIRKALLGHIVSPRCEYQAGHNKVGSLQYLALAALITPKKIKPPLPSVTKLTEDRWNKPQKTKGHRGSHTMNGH
# UniProt Q9HC16: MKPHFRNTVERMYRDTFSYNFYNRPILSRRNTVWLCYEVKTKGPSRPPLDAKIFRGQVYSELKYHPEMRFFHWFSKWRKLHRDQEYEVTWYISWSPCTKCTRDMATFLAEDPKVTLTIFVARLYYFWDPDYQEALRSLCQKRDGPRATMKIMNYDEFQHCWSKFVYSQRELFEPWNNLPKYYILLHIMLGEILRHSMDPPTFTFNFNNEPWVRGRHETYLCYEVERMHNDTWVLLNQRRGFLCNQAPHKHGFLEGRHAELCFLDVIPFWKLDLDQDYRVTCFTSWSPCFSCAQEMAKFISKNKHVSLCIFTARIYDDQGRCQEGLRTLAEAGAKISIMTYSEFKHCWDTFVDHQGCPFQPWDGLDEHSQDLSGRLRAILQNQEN
# About 1,500 (0.58%) of roughly 260,000 compounds were called active. The inconclusive results got no clear call from the source; some entries with a clear call stand among them for comparison.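 How the source made its calls: active means inhibition above a set limit at one or more doses, reproduced on every date tested; inconclusive means results disagree between test dates, or hit never tested in dose response; inactive means the rest.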
# Molecular target: Virion infectivity factor (Human immunodeficiency virus type 1 group M subtype B (isolate BH10)) + Virion infectivity factor (Human immunodeficiency virus type 1 group M subtype B (isolate BRU/LAI)) + Virion infectivity factor (Human immunodeficiency virus type 1 group M subtype B (isolate PCV12)) + Virion infectivity factor (Human immunodeficiency virus type 1 group M subtype B (isolate HXB2)) + DNA dC->dU-editing enzyme APOBEC-3G (Homo sapiens) (UniProt P69720+P69721+P69722+P69723+Q9HC16)
# Experiment: inhibitors of Vif binding to APOBEC3G peptide, primary screen, biochemical, TR-FRET, GST-Vif 1-94, biotin-A3G peptide, dose response retest (AID 1117319);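 further: Vif residues 1-94 fused to GST binding biotinylated APOBEC3G peptide 110-148; 0% = full assay without inhibitor and 100% = GST in place of GST-Vif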
# Details: stronger effect = higher value
row,SMILES,inhibition
1,O=C(NCCOc1ccccc1F)c1cc([N+](=O)[O-])ccc1N1CCOCC1,inconclusive: 33.9%
2,Cc1cccc(N2CCN(C(=O)c3cccn4c(=O)c5c(C)c(C)sc5nc34)CC2)c1C,inconclusive: 40.4%
3,O=C(CCl)N1N=C(c2cccs2)CC1c1ccco1 (stereo unspecified),inconclusive: 55.9%
4,CCOc1ccc(NC(=O)CS(=O)(=O)c2cn(CC)c3ccccc23)cc1,inconclusive: 40.8%
5,N#CN=C(N)c1ccccc1,inconclusive: 55.6%
6,CCOCCCNC(=O)c1ccc(N(C)S(=O)(=O)c2ccc(OC)cc2)cc1,inconclusive: 41.4%
7,COC(=O)c1ccc(C2C(C#N)=C(N)Oc3cc(C)n(C)c(=O)c32)cc1 (stereo unspecified),inconclusive: 62.6%
8,CCOc1cc(/C=N/N=C2/NC(=O)C(CC(=O)O)S2)ccc1OCc1ccc(Cl)cc1 (stereo unspecified),inconclusive: 46.3%
9,COc1cc(O)c(/C=N/NC(=O)c2ccncc2)c(OC)c1[N+](=O)[O-],inconclusive: 58.7%
10,O=[N+]([O-])c1ccc(COc2cccc(CNc3ccc(Br)cc3)c2)cc1,inactive: 2.31%
11,Cn1[nH]c(C(F)(F)F)c(C=NCc2ccc(Cl)cc2)c1=O,inactive: -4.02%
12,O=C(CN1CCN(Cc2ccccc2)CC1)c1c[nH]c2ccccc12,inconclusive: 47.8%
13,C=CCn1c(SCC(=O)c2c(N)n(C)c(=O)n(C)c2=O)nc2sc(C)c(C)c2c1=O,inconclusive: 46.5%
14,C#CCSc1nnc(-c2ccc(C)cc2)o1,inconclusive: 33.4%
15,CCN(Cc1ccccc1)C(c1cc2ccc(C)cc2[nH]c1=O)c1nnnn1CCOC (stereo unspecified),inconclusive: 56.1%
16,O=C(Nc1nnc(-c2ccco2)s1)C1CCCCC1,inactive: 22.7%
17,CCN1CCN(Cc2cccc(Oc3ccc(Cl)cc3)c2)CC1,inconclusive: 34.1%
18,Cc1no[n+]([O-])c1COc1ccccc1/C=N/n1nnnc1N,inconclusive: 33.2%
19,O=C(Nc1ccccc1O)c1cccc(S(=O)(=O)N2CCOCC2)c1,inconclusive: 44.8%
20,Cn1nc(C(F)(F)F)c(C(=O)Nc2ccc(Cl)cc2)c1Cl,inconclusive: 61.6%
21,Cc1c(C(=O)OCC(C)C)[nH]c2c1C(=O)CC(c1cccs1)C2 (stereo unspecified),inconclusive: 58.1%
22,Clc1ccc(-c2nc3n(n2)Cc2ccccc2-3)cc1,inconclusive: 37%
23,COc1cc(/C=C2/NC(=O)N(Cc3ccccc3F)C2=O)ccc1Oc1ccc([N+](=O)[O-])cn1,inconclusive: 54.2%

row,SMILES,inhibition
1,CCOC(=O)c1cc(-c2ccc(N3CCOCC3)cc2)nn1-c1ccccc1C(=O)O,inconclusive: 50.2%
2,COc1cc2cccc(OC)c(=O)c2c(O)c1OC,inactive: 4.6%
3,O=C(O)C1CCCCN1C(=O)c1ccc(S(=O)(=O)N2CCCCCC2)cc1 (stereo unspecified),inactive: -3.6%
4,CCc1ccc2c(c1)CCCN2C(=O)c1ccccc1C(=O)O,inconclusive: 33.1%
5,CCOc1ccc(/C=N/NC(=O)CN2CCCCCCC2)cc1,inactive: 7.01%
6,CS(=O)(=O)N1CCC(C(=O)Nc2cccc([N+](=O)[O-])c2)CC1,inconclusive: 50.6%
7,CCN(CC)c1ccc(NC(=O)Nc2ccccc2C(F)(F)F)cc1,inconclusive: 48.2%
8,C=CCn1c(C)cc(C(=O)CSc2nnc(NC(C)C)s2)c1C,inconclusive: 41.7%
9,O=C1c2cccc3cccc(c23)C(=O)N1CCN1CCN(C(=S)Nc2ccc(Cl)cc2)CC1,inconclusive: 45.6%
10,N#Cc1c(/N=C/c2ccco2)sc2c1CCCCC2,inconclusive: 59.6%
11,Cc1cccc(Cn2ccc(-c3ccc(Cl)cc3)c(C#N)c2=O)c1,inconclusive: 37.1%
12,Cn1c(=O)n(CC(=O)Nc2ccccc2)c2ccccc21,inconclusive: 47%
13,Cc1cc(=O)[nH]c(SCn2nnc3ccccc3c2=O)n1,inconclusive: 41.8%
14,O=C(O)CCCNS(=O)(=O)c1ccc(NCc2ccccc2)c(C(=O)O)c1,inconclusive: 58.3%
15,CN(CC(=O)Nc1ccc(Cl)c(C(F)(F)F)c1)C(=O)c1cc(=O)[nH]c2ccccc12,inactive: 1.56%
16,O=c1[nH]c2ccc(Cl)cc2c(-c2ccccc2)c1N1CCN(CCO)CC1,inconclusive: 50.7%
17,COC(=O)c1cnc(Nc2ccc(Cl)cc2)c([N+](=O)[O-])c1,inconclusive: 38.9%
18,COc1cccc(/C=N/NC(=O)C(=O)NCc2ccco2)c1O,inactive: -4.26%
19,CC1=C(C(=O)OCC2CCCO2)C(c2ccc(C)o2)C2=C(CC(c3ccc(N(C)C)cc3)CC2=O)N1 (stereo unspecified),inconclusive: 61%
20,COc1cccc(C2(O)CCN(CC(=O)NCC3CC3)CC2)c1,inconclusive: 50.9%
21,Cc1nnc(NC(=O)C2CCCCC2)s1,inconclusive: 34.8%
22,c1ccc(-c2csc3nnc(SCc4ccc5c(c4)OCCO5)n23)cc1,inconclusive: 39.7%
23,CCOc1cc(C=O)ccc1OCc1cc(=O)n2cc(C)ccc2n1,inconclusive: 52%

row,SMILES,inhibition
1,COCCNC(=O)C(OC(=O)CC1Sc2ccccc2NC1=O)c1ccncc1 (stereo unspecified),inconclusive: 39.7%
2,COc1ccccc1C(=O)C1CCCN(C(=O)CCn2cnnn2)C1 (stereo unspecified),inconclusive: 48.3%
3,CC(C)CNS(=O)(=O)c1ccc(OCC(=O)NCC2CCCO2)c(Cl)c1 (stereo unspecified),inconclusive: 34%
4,NNC(=O)/C=C/c1ccc(Cl)cc1Cl,inactive: -9.79%
5,Cc1cc(NC(=O)CCC(=O)N(CCc2ccccc2)C(C(=O)NC2CCCC2)c2ccco2)no1 (stereo unspecified),inconclusive: 43.7%
6,Brc1ccc(-c2csc(N/N=C/c3ccco3)n2)cc1,inconclusive: 44.5%
7,O=C(COc1ccc(-c2nnco2)cc1)Nc1ccc(F)c(Cl)c1,inactive: -11.6%
8,C/C(CC(=O)NCc1ccc(Cl)cc1)=N\NC(=O)c1ccccc1F,inconclusive: 64.8%
9,CCOC(=O)CCC(=O)NCc1ccc2c(c1)cc(C)n2C,inconclusive: 35%
10,CCOc1ccc(NC(=O)CSc2nc3nc4c(cc3c(=O)n2CC)COC(C)(C)C4)cc1,inconclusive: 33.3%
11,O=[n+]1c2c(n([O-])c3ccccc31)CCC2,inconclusive: 34.7%
12,CCn1c(SC)nc2c(c1=O)SC(C)C2 (stereo unspecified),inconclusive: 51.6%
13,CCCc1c(O)c2ccccc2[nH]c1=O,inconclusive: 39.9%
14,c1ccc(CNC2=NCCCCC2)cc1,inconclusive: 24%
15,COc1ccc(C2C(C(=O)Nc3ccc(F)cc3)=C(C)Nc3nc(CCCO)nn32)cc1 (stereo unspecified),inactive: -0.37%
16,CC(C)(C)OC(=O)NCCCC[C@H](NC(=O)c1[nH]cnc1C(=O)N[C@@H](Cc1ccccc1)C(=O)OC(C)(C)C)C(=O)OC(C)(C)C,inconclusive: 33.9%
17,CN(CC1COCCO1)c1nc2nonc2nc1N1CCSCC1 (stereo unspecified),inconclusive: 33.1%
18,COC(=O)c1cccc(NC(=O)NC(=O)c2ccccc2Cl)c1,inconclusive: 42.4%
19,O=C(Nc1ccc(N2CCN(C(=O)c3ccco3)CC2)cc1)c1cccc(F)c1,inconclusive: 38.3%
20,N#Cc1ccc(COC(=O)c2ccc3c(=O)[nH]c(CN4CCOCC4)nc3c2)cc1,inconclusive: 36.5%
21,COC(=O)c1ccc(CSc2nnc(-c3ccccc3)n2C)o1,inactive: 2.37%
22,COc1ccc(OCCSc2ncccn2)cc1,inactive: -7.11%
23,Cc1ccc(C(OCC(O)CNC(CO)C(O)c2ccc([N+](=O)[O-])cc2)c2ccccc2)cc1 (stereo unspecified),inconclusive: 47%

row,SMILES,inhibition
1,O=S(=O)(NCCc1ccccc1)c1ccc(S(=O)(=O)N2CCCCC2)cc1,inconclusive: 59.9%
2,CCOc1cc(C(=O)OCC(=O)NCc2ccco2)cc(OCC)c1OCC,inconclusive: 43.2%
3,O=C(Cn1nc(Cc2cccnc2)c2ccccc2c1=O)N1CCN(C(=O)c2ccco2)CC1,inconclusive: 36%
4,Cc1nnc(Nc2ccccc2F)s1,inconclusive: 46.4%
5,COc1ccc(-c2nnc(Nc3ccc(S(=O)(=O)Nc4nccs4)cc3)c3ccccc23)cc1,inactive: 12.6%
6,CCc1nn(CC(=O)N2CCN(Cc3ccc4c(c3)OCO4)CC2)c(=O)c2cc3occc3n12,inconclusive: 62.3%
7,CN(C)CCCNC1=CC(=O)OC12CCCCC2,inconclusive: 42.2%
8,CN(C)S(=O)(=O)c1cccc(NC(=O)COC(=O)/C=C/c2ccc(Br)o2)c1,inconclusive: 43.2%
9,Cc1ccccc1OCC(O)CN(CCO)Cc1ccccc1 (stereo unspecified),inconclusive: 33.4%
10,COc1ccc(CCNc2ccncn2)cc1,inconclusive: 45.7%
11,Cc1cc(C)c(S(=O)(=O)NCCc2ccncc2)c(C)c1,inactive: -0.3%
12,COc1ccc(OC)c2c1C(=O)C(Cl)=C(Cl)C2=O,inconclusive: 33.3%
13,CSCCC(NC(=O)C1CC1)c1nc2ccccc2[nH]1 (stereo unspecified),inconclusive: 34%
14,COc1ccc(Br)cc1CNc1ccc(O)cc1,inconclusive: 68.6%
15,O=C1c2cccc3cccc(c23)C(=O)N1CCN1CCN(CC(O)COCc2ccc(Cl)cc2)CC1 (stereo unspecified),inconclusive: 35.8%
16,COc1cccc(-c2[nH]nc3c2C(c2ccoc2)C(C#N)=C(N)O3)c1 (stereo unspecified),inconclusive: 51.4%
17,O=C(Nc1ccc(N2CCOCC2)cc1)C1(S(=O)(=O)c2ccccc2)CC1,inconclusive: 33.7%
18,COc1ccc2nc(N3CCC(C)CC3)c(C#N)cc2c1,inconclusive: 36.3%
19,CCS(=O)(=O)N1CCc2cc(OC)c(OC)cc2C1,inconclusive: 34.8%
20,Cc1cc([N+](=O)[O-])nn1CCCC(=O)NC1CCCCC1,inconclusive: 36.7%
21,O=C(c1ccccc1)c1ccc(OCCO)cc1,inactive: -4%
22,CCn1c2ccccc2c2cc(NC(=O)CSc3nnc(-c4cccc(Cl)c4)o3)ccc21,inconclusive: 42.4%

# Taken from above:
# Value of CCc1nn(CC(=O)N2CCN(Cc3ccc4c(c3)OCO4)CC2)c(=O)c2cc3occc3n12 under inhibition: inconclusive: 62.3%
# Value of Cc1ccccc1OCC(O)CN(CCO)Cc1ccccc1 (stereo unspecified) under inhibition: inconclusive: 33.4%
# Value of Cc1nnc(Nc2ccccc2F)s1 under inhibition: inconclusive: 46.4%
# Value of COc1ccc(OC)c2c1C(=O)C(Cl)=C(Cl)C2=O under inhibition: inconclusive: 33.3%
# Value of Cc1cc(C)c(S(=O)(=O)NCCc2ccncc2)c(C)c1 under inhibition: inactive: -0.3%
